Test results published in article PMC11220046.
No constants are given. Whether binding was seen depends on the method and setting. In cells and extracts the contact can be indirect. Some entries that bind do so weakly or less than the wild type.

By UniProt entry, the sequences of proteins in these tests, tags left out. Residues count along the entry.
UniProt Q9BXM7, residues 78-581: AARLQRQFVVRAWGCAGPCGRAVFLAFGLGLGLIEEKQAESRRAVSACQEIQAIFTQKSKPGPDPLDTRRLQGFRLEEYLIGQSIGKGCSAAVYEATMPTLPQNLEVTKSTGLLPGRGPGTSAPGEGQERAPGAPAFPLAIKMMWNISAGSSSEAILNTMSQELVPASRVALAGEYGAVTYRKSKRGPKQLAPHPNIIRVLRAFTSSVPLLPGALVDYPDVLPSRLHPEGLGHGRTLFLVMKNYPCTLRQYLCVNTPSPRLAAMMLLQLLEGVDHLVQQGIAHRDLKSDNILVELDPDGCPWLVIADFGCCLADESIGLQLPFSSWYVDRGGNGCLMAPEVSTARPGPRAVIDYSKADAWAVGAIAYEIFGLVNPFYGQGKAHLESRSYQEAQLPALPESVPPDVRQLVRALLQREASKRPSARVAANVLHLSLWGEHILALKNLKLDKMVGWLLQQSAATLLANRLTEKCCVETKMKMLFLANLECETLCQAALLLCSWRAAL

Target: PTEN-induced putative kinase 1 (human (endogenous in HK-2)) (UniProt Q9BXM7)
Assay: co-IP; antibody (or IgG) bound to protein A+G magnetic beads for 1 h at room temperature, lysate added overnight at 4 degrees Celsius, eluted in SDS loading buffer, immunoblot; HK-2 cell groups with LPS, ISO-1, OE-MIF or KD-MIF

B1: Macrophage migration inhibitory factor (protein, UniProt P14174 1-115)
chain: MPMFIVNTNVPRASVPDGFLSELTQQLAQATGKPPQYIAVHVVPDQLMAFGGSSEPCALCSLHSIGKIGGAQNRSYSKLLCGLLAERLRISPDRVYINYYDMNAANVGWNNSTFA
- binding: binds
